Measured values from doi:10.1101/2020.07.20.211441.
These are yes or no findings as the source states them, for the method shown. Binding seen in cells or lysates may run through a third protein. A yes stands for co-enrichment or nearness to the bait. Other partners may have been found. Sequences can lack the tags named with a protein.

T1: XPA-binding protein (XAB)-2, biotin-tagged knock-in (mouse) (UniProt Q9DCD2)
T1 sequence (chain, biotin on the Avitag (by the BirA ligase in vivo)): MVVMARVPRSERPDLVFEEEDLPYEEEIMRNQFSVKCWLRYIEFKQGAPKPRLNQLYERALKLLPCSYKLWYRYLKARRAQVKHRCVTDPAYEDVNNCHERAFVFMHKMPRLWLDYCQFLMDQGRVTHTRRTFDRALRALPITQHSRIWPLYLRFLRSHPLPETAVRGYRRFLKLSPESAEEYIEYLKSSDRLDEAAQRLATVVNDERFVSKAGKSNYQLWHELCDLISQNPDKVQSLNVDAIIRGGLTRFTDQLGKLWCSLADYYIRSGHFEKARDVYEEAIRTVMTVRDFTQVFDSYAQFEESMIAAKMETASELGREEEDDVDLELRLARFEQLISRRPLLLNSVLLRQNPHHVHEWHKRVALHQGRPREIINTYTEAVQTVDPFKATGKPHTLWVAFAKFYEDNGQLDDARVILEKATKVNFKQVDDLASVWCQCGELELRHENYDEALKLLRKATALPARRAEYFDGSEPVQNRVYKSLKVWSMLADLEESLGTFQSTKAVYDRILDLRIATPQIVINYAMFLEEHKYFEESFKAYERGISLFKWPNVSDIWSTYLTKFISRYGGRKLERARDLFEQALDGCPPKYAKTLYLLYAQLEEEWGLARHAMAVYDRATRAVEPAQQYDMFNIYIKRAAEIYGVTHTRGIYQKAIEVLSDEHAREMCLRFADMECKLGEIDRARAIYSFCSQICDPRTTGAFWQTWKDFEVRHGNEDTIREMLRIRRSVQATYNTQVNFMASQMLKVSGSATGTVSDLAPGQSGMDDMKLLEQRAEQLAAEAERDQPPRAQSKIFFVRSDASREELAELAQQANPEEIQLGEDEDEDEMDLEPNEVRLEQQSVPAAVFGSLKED


molecular target: T1, XPA-binding protein (XAB)-2, biotin-tagged knock-in (mouse); assay: affinity purification with mass spectrometry

Row | binding | Binder
1 | binds | NUPl2 (protein, UniProt Q8CIC2 1-420) MTICQFFLQGRCRFGDRCWNEHPGARGAGGARQPPPQQQPPSGNNRRGWNASSQRYSNVIQPSSFPKSTPWGGSRDQDKPPFGSFDSGASTSRGFGSSQNPFASPLSDEQKDEKKLLEGIVKDVEVWESSGQWMFSVYSPVRKKPNISGFTDISPEELRLEYHNFLTSNNLQSYLNSVQQLVSQWRNRINELKNLTMSTKGALLSDVKDGVSQAVPAFGFGSKQAGSFGSPGFPVNNSSSSTVQNFSFKTSPGLATPPSGSTSVFGSHPAFGAGPSAGSSISSSTPAFGLGKPEATSAASFSFKSPEASSFASPGFSGFPASMAASPSGSTTAPPLRSGSSVVGFGSPSPHSQAVFAKPSTDVFGGSGISTSVLASGAADNALFTPRDQLMKEELEQFQSQRFTLGKIPLKPPPVELLTV
2 | binds | SMC1a (protein, UniProt Q9CU62 1-1233) MGFLKLIEIENFKSYKGRQIIGPFQRFTAIIGPNGSGKSNLMDAISFVLGEKTSNLRVKTLRDLIHGAPVGKPAANRAFVSMVYSEEGAEDRTFARVIVGGSSEYKINNKVVQLHEYSEELEKLGILIKARNFLVFQGAVESIAMKNPKERTALFEEISRSGELAQEYDKRKKEMVKAEEDTQFNYHRKKNIAAERKEAKQEKEEADRYQRLKDEVVRAQVQLQLFKLYHNEVEIEKLNKELASKNKEIEKDKKRMDKVEDELKEKKKELGKMMREQQQIEKEIKEKDSELNQKRPQYIKAKENTSHKIKKLEAAKKSLQNAQKHYKKRKGDMDELEKEMLSVEKARQEFEERMEEESQSQGRDLTLEENQVKKYHRLKEEASKRAATLAQELEKFNRDQKADQDRLDLEERKKVETEAKIKQKLREIEENQKRIEKLEEYITTSKQSLEEQKKLEGELTEEVEMAKRRIDEINKELNQVMEQLGDARIDRQESSRQQRKAEIMESIKRLYPGSVYGRLIDLCQPTQKKYQIAVTKVLGKNMDAIIVDSEKTGRDCIQYIKEQRGEPETFLPLDYLEVKPTDEKLRELKGAKLVIDVIRYEPPHIKKALQYACGNALVCDNVEDARRIAFGGHQRHKTVALDGTLFQKSGVISGGASDLKAKARRWDEKAVDKLKEKKERLTEELKEQMKAKRKEAELRQVQSQAHGLQMRLKYSQSDLEQTKTRHLALNLQEKSKLESELANFGPRINDIKRIIQSREREMKDLKEKMNQVEDEVFEEFCREIGVRNIREFEEEKVKRQNEIAKKRLEFENQKTRLGIQLDFEKNQLKEDQDKVHMWEQTVKKDENEIEKLKKEEQRHMKIIDETMAQLQDLKNQHLAKKSEVNDKNHEMEEIRKKLGGANKEMTHLQKEVTAIETKLEQKRSDRHNLLQACKMQDIKLPLSKGTMDDISQEEGSSQGEESVSGSQRTSSIYAREALIEIDYGDLCEDLKDAQAEEEIKQEMNTLQQKLNEQQSVLQRIAAPNMKAMEKLESVRDKFQETSDEFEAARKRAKKAKQAFEQIKKERFDRFNACFESVATNIDEIYKALSRNSSAQAFLGPENPEEPYLDGINYNCVAPGKRFRPMDNLSGGEKTVAALALLFAIHSYKPAPFFVLDEIDAALDNTNIGKVANYIKEQSTCNFQAIVISLKEEFYTKAESLIGVYPEQGDCVISKVLTFDLTKYPDANPNPNEQ
3 | binds | RAD21 (protein, UniProt Q61550 1-635) MFYAHFVLSKRGPLAKIWLAAHWDKKLTKAHVFECNLESSVESIISPKVKMALRTSGHLLLGVVRIYHRKAKYLLADCNEAFIKIKMAFRPGVVDLPEENREAAYNAITLPEEFHDFDQPLPDLDDIDVAQQFSLNQSRVEEITMREEVGNISILQENDFGDFGMDDREIMREGSAFEDDDMLVSTSASNLLLEPEQSTSNLNEKMNHLEYEDQYKDDNFGEGNDGGILDDKLISNNDGGIFDDPPALSEAGVMLPEQPAHDDMDEDDNGSLGGPDSPDSVDPVEPMPTMTDQTTLVPNEEEAFALEPIDITVKETKAKRKRKLIVDSVKELDSKTIRAQLSDYSDIVTTLDLAPPTKKLMMWKETGGVEKLFFLPAQPLWNNRLLKLFTRCLTPLVPEDLRKRRKGGEADNLDEFLKEFENPEVPREEQQPQQQQPQPQRDVIDEPIIEEPSRLQDSVMEASRTTIEESAMPPPPPQGVKRKAGQIDPEPSIPPQQVEQMEIPPVELPPEEPPNICQLIPELELLPEKEKEKEKEKEEEEEEEDEDASGGDQDQEERRWNKRTQQMLHGLQRALAKTGAESISLLELCRNTNRKQAAAKFYSFLVLKKQQAIELTQEEPYSDIIATPGPRFHII
